PubChem BioAssay AID686943 | Drosophila RNAi Screening Center | 2013

Aim: 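Knockdowns that increase or decrease active ERK after insulin receptor stimulation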 (primary screen)
Cells: Drosophila S2R+ haemocyte-like cells expressing YFP-tagged ERK (Rolled)
Reagents: long dsRNA against Drosophila genes
Conditions: insulin stimulation versus unstimulated cells; dose and duration not given
Read-out: 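Per-plate z-scores of phospho-ERK immunostaining normalised to YFP-tagged ERK, measured with and without insulin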
Reading the numbers: replicate 1, z-score of dpERK with insulin: higher = more active ERK per ERK-YFP after insulin
In all, the deposit lists about 23,000 reagents; shown is an unselected part of those with a known target gene and a result. 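Extra replicates exist only for a retested subset of genes; insulin dose and duration not given; both raised and lowered dpERK matter.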 Reagents against one gene are numbered here. Further read-outs or replicates are left out here. Reagent sequences are not shown. Not given: the amount of reagent, the time to read-out.

What did the screen give for Obp56g?
replicate 1, z-score of dpERK with insulin: -0.3

What is on record for CG5246?
replicate 1, z-score of dpERK with insulin: 0.48

What is on record for CG31465?
replicate 1, z-score of dpERK with insulin: -0.53

What is on record for CG17991?
replicate 1, z-score of dpERK with insulin: -0.2

With CG15098, what was measured?
replicate 1, z-score of dpERK with insulin: -1.22

With CG13216, how do the results read?
replicate 1, z-score of dpERK with insulin: -0.34

Which result is listed for CG12688 (retired record) #1?
replicate 1, z-score of dpERK with insulin: 1.26

How did the screen score CG12688 (retired record) #2?
replicate 1, z-score of dpERK with insulin: 0.08

What is on record for E23 #1?
replicate 1, z-score of dpERK with insulin: -5.17

With E23 #2, how do the results read?
replicate 1, z-score of dpERK with insulin: -0.05

How did the screen score CG33462?
replicate 1, z-score of dpERK with insulin: 1.14

With CG12106, what does the deposit list?
replicate 1, z-score of dpERK with insulin: 0.63

Ordered by “replicate 1, z-score of dpERK with insulin” (low to high): some entries from above.
E23 #1 → replicate 1, z-score of dpERK with insulin: -5.17
CG12688 (retired record) #2 → replicate 1, z-score of dpERK with insulin: 0.08
